# Laboratory results as given in PubChem BioAssay AID2124 (Sanford-Burnham Center for Chemical Genomics, 2009).
# Some of the results follow.
# Experiment: GFP-wavelength compound autofluorescence in cells – imaging, high-content imaging, artefact control, dose response (AID 2124);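 further: cells exposed to compound for 48 hours before fixing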
# Conditions: GFP-channel autofluorescence, at 10 µM
smiles,measurement,value
CP(=O)(Nc1cccc(Br)c1)Oc1ccccc1 (stereo unspecified),cell count,3060 cells
